The supplement of paper PMC7877785
± gives the uncertainty stated by the source. Many of these values have a large error.

Experiment: self-splicing fitness, log relative to wild type (ln ratio); higher = more splicing; Tetrahymena group I intron in knt gene, E. coli kanamycin selection, DiMSum; sequences stand for … in CUCUCU…GGAGGGAAAAGUUAUCAGGCAUGCACCUGGUAGCUAGUCUUUAAACCAAUAGAUUGCAUCGGUUUAAAAGGCAAGACCGUCAAAUUGCGGGAAAGGGGUCAACAGCCGUUCAGUACCAAGUCUCAGGGGAAACUUUGAGAUGGCCUUGCAAAGGGUAUGGUAAUAAGCUGACGGACAUGGUCCUAACCACGCAGCCAAGUCCUAAGUCAACAGAUCUUCUGUUGAUAUGGAUGCAGUUCACAGACUAAAUGUCGGUCGGGGAAGAUGUAUUCUUCUCAUAAGAUAUAGUCGGACCUCUCCUUAAUGGGAGCUAGCGGAUGAAGUGAUGCAACACUGGAGCCGCUGGGAACUAAUUUGUAUGCGAAAGUAUAUUGAUUAGUUUUGGAGUACUCGUGGUCG
How it was run: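 Fitness was computed with DiMSum as the error-weighted combination of replicate fold changes, kanamycin versus none, each normalised to wild type. The library randomised all eight intron nucleotides of the P1ex region, with the intron placed in the knt kanamycin-resistance gene on pET-22b(+) in E. coli BL21(DE3). Six replicate transformations were grown overnight at 37°C or 30°C on LB agar with or without 25 μg/mL kanamycin, plus 100 μg/mL carbenicillin, 50 μM IPTG and 0.2% rhamnose. Pooled colonies were amplicon-sequenced on an Illumina HiSeq 2500.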

Row | Sequence | self-splicing fitness (ln) (30 °C) | self-splicing fitness (ln) (37 °C)
1 | CAUAAGCAAUAUUACGGAAC | -4.48 ± 0.51 | 
2 | CGUGAGCAAUAUUACGCAGC | -4.77 ± 0.73 | 
3 | GGGGAGCAAUAUUACGUCUG | -2.55 ± 0.37 | -1.24 ± 0.24
4 | UUGGAGCAAUAUUACGGCGU | -3.5 ± 0.6 | 
5 | AUAUAGCAAUAUUACGAGGC |  | -2.75 ± 0.53
6 | CUAUAGCAAUAUUACGCAGG |  | -2.71 ± 0.54
7 | UACGAGCAAUAUUACGUCCC | -2.58 ± 0.82 | 
8 | AUUGAGCAAUAUUACGAAAA |  | -1.62 ± 0.79
9 | UUUUAGCAAUAUUACGUAGU |  | -3.17 ± 0.52
10 | GUUUAGCAAUAUUACGUGAC | -1.94 ± 0.69 | 
11 | CAGGAGCAAUAUUACGCUAC |  | -1.79 ± 0.82
12 | UAGAAGCAAUAUUACGCUGA | -3.13 ± 0.53 | 
13 | UGUUAGCAAUAUUACGGAGU | -4.97 ± 0.58 | 
14 | GUCAAGCAAUAUUACGUGUA | -1.8 ± 0.062 | -0.887 ± 0.072
15 | CCGUAGCAAUAUUACGGCCC | -0.828 ± 0.71 | 
16 | AGAGAGCAAUAUUACGCACG |  | -2.03 ± 0.81
17 | GGAGAGCAAUAUUACGCUCU | -2.81 ± 0.76 | -2.01 ± 0.65
18 | CUUGAGCAAUAUUACGUAUU | -4.21 ± 0.73 | 
19 | GACGAGCAAUAUUACGGCCA | -2.56 ± 0.64 | 
20 | UAGGAGCAAUAUUACGAUCU |  | -2.61 ± 0.62
21 | CACGAGCAAUAUUACGCCUA | -2.71 ± 1.1 | 
22 | GAGGAGCAAUAUUACGCAUU | -2.99 ± 0.43 | -0.645 ± 0.33
23 | UAGUAGCAAUAUUACGCGAC | -2.65 ± 0.66 | 
24 | GGGGAGCAAUAUUACGGUCA | -2.83 ± 0.67 | 
25 | CAAUAGCAAUAUUACGAAAC | -4.91 ± 0.51 | 

Row | Sequence | self-splicing fitness (ln) (30 °C) | self-splicing fitness (ln) (37 °C)
26 | GUGAAGCAAUAUUACGGACC | -0.562 ± 0.53 | -0.595 ± 1.4
27 | AAGAAGCAAUAUUACGCUUC |  | -3.2 ± 0.53
28 | UGAAAGCAAUAUUACGUGGG | -3.67 ± 0.2 | -2.4 ± 0.17
29 | GGGAAGCAAUAUUACGGCAG |  | -2.07 ± 1.1
30 | AAUUAGCAAUAUUACGCUUA | -0.993 ± 0.12 | 0.247 ± 0.14
31 | ACGAAGCAAUAUUACGCUUG | -1.4 ± 0.086 | -0.259 ± 0.098
32 | CUAGAGCAAUAUUACGAUCA |  | -1.41 ± 0.71
33 | UCUCAGCAAUAUUACGGCUC | -0.631 ± 0.87 | 
34 | CGUGAGCAAUAUUACGCUUC | -3.91 ± 0.41 | -3.07 ± 0.43
35 | AGCUAGCAAUAUUACGCGCU | -1.96 ± 0.87 | -2.3 ± 1.1
36 | UAGUAGCAAUAUUACGCCAU | -2.71 ± 1.1 | 
37 | GCGGAGCAAUAUUACGACAC |  | -1.39 ± 0.55
38 | UUUCAGCAAUAUUACGGGCU | -3.54 ± 0.61 | -1 ± 0.53
39 | UCUGAGCAAUAUUACGUAGC | -4.87 ± 1 | 
40 | UGAAAGCAAUAUUACGAAGC | -2.65 ± 0.63 | 
41 | CGUUAGCAAUAUUACGCUGC | -2.26 ± 0.54 | 
42 | GUCUAGCAAUAUUACGGGAU | -4.48 ± 0.42 | -3.39 ± 0.42
43 | CUUGAGCAAUAUUACGCCUG | -3.62 ± 0.53 | 
44 | CAAGAGCAAUAUUACGCAGU |  | -3.17 ± 0.52
45 | UUCGAGCAAUAUUACGCAUC |  | -3.51 ± 0.61
46 | CACGAGCAAUAUUACGAUCU | -5.38 ± 1 | 
47 | UGGUAGCAAUAUUACGCACG |  | 0.218 ± 0.51
48 | CCGCAGCAAUAUUACGACCC | -2.78 ± 0.56 | -1.18 ± 0.57
49 | CCCGAGCAAUAUUACGCGCG | -2.29 ± 0.61 | -3.21 ± 0.52
50 | CUGGAGCAAUAUUACGCUCC |  | -0.113 ± 0.76

Row | Sequence | self-splicing fitness (ln) (30 °C) | self-splicing fitness (ln) (37 °C)
51 | AGAGAGCAAUAUUACGUCAG |  | -2.48 ± 0.5
52 | CGAGAGCAAUAUUACGGUUC | -2.31 ± 0.68 | -2.76 ± 0.75
53 | GGAGAGCAAUAUUACGUUAC | -3.41 ± 0.6 | -2.67 ± 0.53
54 | CCAUAGCAAUAUUACGUUGA | -3.57 ± 0.26 | -2.31 ± 0.15
55 | UAAUAGCAAUAUUACGCUUC | -5.43 ± 1 | 
56 | UGUUAGCAAUAUUACGCUCU | -1.66 ± 0.16 | -0.371 ± 0.16
57 | CUCCAGCAAUAUUACGCCCA | -3.06 ± 1.1 | -2.94 ± 0.76
58 | GAUGAGCAAUAUUACGGCAG | -3.06 ± 0.63 | 
59 | AAUGAGCAAUAUUACGCUAG | -3.26 ± 0.74 | 
60 | CGCCAGCAAUAUUACGCCAU | -5.72 ± 0.71 | 
61 | UUCUAGCAAUAUUACGAAGC | -2.02 ± 0.87 | 
62 | UAAGAGCAAUAUUACGAAGU | -3.61 ± 0.31 | -1.85 ± 0.41
63 | CGCGAGCAAUAUUACGCAAG | -2.92 ± 0.27 | -2.91 ± 0.43
64 | GGUCAGCAAUAUUACGCGAC |  | 0.694 ± 0.65
65 | CUUGAGCAAUAUUACGUAAC |  | -1.62 ± 1.1
66 | CAGAAGCAAUAUUACGGAAA | -1.74 ± 0.59 | 
67 | GGAAAGCAAUAUUACGAUCC |  | -1.45 ± 0.59
68 | CUUGAGCAAUAUUACGUUCA | -2.84 ± 0.75 | -2.36 ± 0.63
69 | UAAGAGCAAUAUUACGGCAC | -2.31 ± 0.51 | -1.16 ± 0.48
70 | UCCUAGCAAUAUUACGAGUC |  | -3.3 ± 0.52
71 | GGAUAGCAAUAUUACGCCUG |  | -0.927 ± 1.2
72 | AUCGAGCAAUAUUACGCUCC | -3.41 ± 0.73 | 
73 | UAAUAGCAAUAUUACGAAUU | -3.96 ± 0.59 | 
74 | UUUUAGCAAUAUUACGCCGC | -3.48 ± 1.1 | -1.55 ± 0.59
75 | AGAGAGCAAUAUUACGCGGA | -3.92 ± 1 | 

Reformatted as comma-separated lines: entries from further up
Row,Sequence,self-splicing fitness (ln) (30 °C),self-splicing fitness (ln) (37 °C)
7,UACGAGCAAUAUUACGUCCC,-2.58 ± 0.82,
42,GUCUAGCAAUAUUACGGGAU,-4.48 ± 0.42,-3.39 ± 0.42

Remaining list, next part

Row | Sequence | self-splicing fitness (ln) (30 °C) | self-splicing fitness (ln) (37 °C)
76 | GGGGAGCAAUAUUACGACAA |  | -1.85 ± 0.67
77 | AUCAAGCAAUAUUACGUCUU | -1.86 ± 0.072 | -0.301 ± 0.073
78 | CCGGAGCAAUAUUACGCCCC |  | -1.62 ± 1.1
79 | ACGCAGCAAUAUUACGAGUA | -3.72 ± 0.33 | -3.07 ± 0.27
80 | AAUAAGCAAUAUUACGUGCC | -0.624 ± 0.54 | 
81 | CAAUAGCAAUAUUACGUGCC | -2.98 ± 0.26 | -3.02 ± 0.32
82 | UGGGAGCAAUAUUACGGGUC | -2.57 ± 0.55 | -0.939 ± 0.5
83 | GAAUAGCAAUAUUACGACUC | -0.601 ± 0.13 | -1.34 ± 0.18
84 | CGGGAGCAAUAUUACGCCCC |  | -0.693 ± 1.4
85 | GGGGAGCAAUAUUACGGCCU | -2.65 ± 1.1 | -2.49 ± 0.5
86 | UGGCAGCAAUAUUACGCCCU |  | -0.12 ± 0.74
87 | AGUAAGCAAUAUUACGACUG | -1.45 ± 0.12 | 0.23 ± 0.15
88 | ACAGAGCAAUAUUACGCGUC | -5.64 ± 0.58 | 
89 | CUACAGCAAUAUUACGGCUU |  | -4.03 ± 0.72
90 | UCCGAGCAAUAUUACGGAUC | -3.85 ± 0.53 | 
91 | UGGGAGCAAUAUUACGCAAG |  | -2.83 ± 0.76
92 | GGUAAGCAAUAUUACGUAGU | -1.48 ± 0.11 | -1.46 ± 0.17
93 | UCGUAGCAAUAUUACGCGCC |  | -1.65 ± 0.69
94 | CUGCAGCAAUAUUACGCGUC | -3.98 ± 0.35 | -2.05 ± 0.32
95 | CAAGAGCAAUAUUACGCCAU | -3.2 ± 0.23 | -2.02 ± 0.28
96 | AUUAAGCAAUAUUACGAUCC | -0.418 ± 0.11 | -0.106 ± 0.19
97 | AAAGAGCAAUAUUACGCGGC | -4.18 ± 0.72 | 
98 | UCGGAGCAAUAUUACGAACG | -2.07 ± 0.63 | 
99 | CGGGAGCAAUAUUACGGUUG |  | -2.63 ± 0.52
100 | CUUCAGCAAUAUUACGUAUA | -3.15 ± 0.27 | -1.98 ± 0.2

Row | Sequence | self-splicing fitness (ln) (30 °C) | self-splicing fitness (ln) (37 °C)
101 | UCGGAGCAAUAUUACGUAUC | -2.77 ± 1.1 | 
102 | UCUGAGCAAUAUUACGCCCA | -0.868 ± 1.4 | -0.681 ± 1.4
103 | AAGCAGCAAUAUUACGGAAC | -3.6 ± 0.3 | -3.32 ± 0.6
104 | AAGGAGCAAUAUUACGGAAC | -3.57 ± 0.61 | 
105 | UCGUAGCAAUAUUACGCAAC | -3.51 ± 0.52 | 
106 | AUUCAGCAAUAUUACGUCAU | -0.863 ± 0.059 | 0.0811 ± 0.071
107 | CAGGAGCAAUAUUACGAACC | -3.1 ± 0.61 | 
108 | UUUGAGCAAUAUUACGAAAC | -2.84 ± 0.75 | -0.693 ± 1.4
109 | GUAGAGCAAUAUUACGAUAG | -2.06 ± 0.15 | -1.42 ± 0.14
110 | AUAGAGCAAUAUUACGGUCC |  | -4.36 ± 0.59
111 | CUACAGCAAUAUUACGGCCA | -3 ± 0.28 | -4.28 ± 0.51
112 | UCUUAGCAAUAUUACGUCAC | -3.7 ± 1.1 | 
113 | GCCGAGCAAUAUUACGGUCG |  | -4 ± 0.51
114 | GCGGAGCAAUAUUACGCGAG | -4.61 ± 0.72 | 
115 | UCAUAGCAAUAUUACGACAC | -4.1 ± 0.59 | 
116 | AAUGAGCAAUAUUACGGAAC |  | -3.26 ± 1
117 | CGCUAGCAAUAUUACGCCGC |  | -1.96 ± 0.5
118 | CGAGAGCAAUAUUACGACGA | -2.65 ± 1.1 | 
119 | AUAAAGCAAUAUUACGGGUG | -1.03 ± 0.082 | -0.259 ± 0.094
120 | UUGGAGCAAUAUUACGUACA | -3.32 ± 0.62 | 
121 | GAUAAGCAAUAUUACGAGAC | -2.71 ± 0.79 | -2.1 ± 0.64
